According to article PMC9898238:
These are yes or no findings as the source states them, for the method shown. In cells and extracts the contact can be indirect. Some results given as binding are weak or reduced against the parent protein; the word gives no strength.

Sequences of proteins named here, by UniProt entry; tags and fusion partners are left off. Residues count along the entry.
UniProt Q9BYV6: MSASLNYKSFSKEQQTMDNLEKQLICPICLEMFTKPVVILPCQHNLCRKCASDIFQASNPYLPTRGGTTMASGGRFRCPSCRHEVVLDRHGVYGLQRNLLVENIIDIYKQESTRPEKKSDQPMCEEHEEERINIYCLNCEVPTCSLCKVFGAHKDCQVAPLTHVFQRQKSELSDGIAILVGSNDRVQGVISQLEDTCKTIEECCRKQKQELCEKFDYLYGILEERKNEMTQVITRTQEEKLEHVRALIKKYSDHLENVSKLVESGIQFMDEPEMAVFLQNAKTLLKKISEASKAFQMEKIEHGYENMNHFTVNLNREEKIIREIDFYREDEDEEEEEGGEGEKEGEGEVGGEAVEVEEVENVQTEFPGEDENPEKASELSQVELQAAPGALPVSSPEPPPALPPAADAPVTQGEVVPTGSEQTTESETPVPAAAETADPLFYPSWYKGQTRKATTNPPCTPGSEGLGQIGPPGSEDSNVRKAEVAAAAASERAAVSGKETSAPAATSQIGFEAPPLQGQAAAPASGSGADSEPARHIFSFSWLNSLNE
UniProt P37231, residues 29-505: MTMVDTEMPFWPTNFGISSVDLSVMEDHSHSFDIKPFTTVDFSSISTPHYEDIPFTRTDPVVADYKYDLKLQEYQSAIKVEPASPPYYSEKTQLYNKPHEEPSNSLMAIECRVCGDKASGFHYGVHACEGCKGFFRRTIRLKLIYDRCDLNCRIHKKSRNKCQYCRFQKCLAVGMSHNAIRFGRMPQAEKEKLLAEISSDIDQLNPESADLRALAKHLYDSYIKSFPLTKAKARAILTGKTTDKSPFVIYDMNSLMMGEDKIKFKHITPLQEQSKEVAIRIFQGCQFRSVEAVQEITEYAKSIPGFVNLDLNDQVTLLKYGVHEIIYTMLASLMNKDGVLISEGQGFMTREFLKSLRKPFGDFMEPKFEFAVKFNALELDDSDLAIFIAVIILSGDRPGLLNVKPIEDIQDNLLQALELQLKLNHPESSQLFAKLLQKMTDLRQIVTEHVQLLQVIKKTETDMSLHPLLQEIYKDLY

Molecular target: E3 ubiquitin ligase muscle ring finger protein 2 (MuRF2), His-tagged (UniProt Q9BYV6)
Assay: co-IP; HEK293T co-transfected with His-MuRF2, HA-Ub and PPAR γ1 (wild type or mutant); MG132 20 µM for 6 h before harvest; 500 µg lysate protein precipitated with mouse anti-His antibody and protein A/G agarose at 4 °C; immunoblot with anti-PPAR γ1

binding: binds
Substance: Peroxisome proliferator-activated receptor gamma 1 (PPAR γ1) (from UniProt P37231-2 1-477)
